# Data: patent publication US20240091321A1
# No constants are given. Whether binding was seen depends on the method and setting. Binding calls can cover weak binding; strength is not graded here.
# B1: PPT1 engineered (enzyme)
# chain: DPPAPLPLVIWHGMGDSCCNPLSMGAIKKMVEKKIPGIYVLSLEIGKTLMEDVENSFFLNVNSQVTTVCQALAKDPKLQQGYNAMGFSQGGQFLRAVAQRCPSPPMINLISVGGQHQGVFGLPRCPGESSHICDFIRKTLNAGAYSKVVQERLVQAEYWHDPIKEDVYRNHSIFLADINQERGINESYKKNLMALKKFVMVKFLNDSIVDPVDSEWFGFYRSGQAKETIPLQETSLYTQDRLGLKEMDNAGQLVFLATEGDHLQLSEEWFYAHIIPFLGRPRAVPTQGGSGSGSTSSSRTLCGGELVDTLQFVCGDRGFLFSRPASRVSRRSRGIVEECCFRECDLALLETYCATPARSE
# B2: Natural hTTP1 (enzyme)
# enzyme: SYSPEPDQRRTLPPGWVSLGRADPEEELSLTFALRQQNVERLSELVQAVSDPSSPQYGKYLTLENVADLVRPSPLTLHTVQKWLLAAGAQKCHSVITQDFLTCWLSIRQAELLLPGAEFHHYVGGPTETHVVRSPHPYQLPQALAPHVDFVGGLHRFPPTSSLRQRPEPQVTGTVGLHLGVTPSVIRKRYNLTSQDVGSGTSNNSQACAQFLEQYFHDSDLAQFMRLFGGNFAHQASVARVVGQQGRGRAGIEASLDVQYLMSAGANISTWVYSSPGRHEGQEPFLQWLMLLSNESALPHVHTVSYGDDEDSLSSAYIQRVNTELMKAAARGLTLLFASGDSGAGCWSVSGRHQFRPTFPASSPYVTTVGGTSFQEPFLITNEIVDYISGGGFSNVFPRPSYQEEAVTKFLSSSPHLPPSSYFNASGRAYPDVAALSDGYWVVSNRVPIPWVSGTSASTPVFGGILSLINEHRILSGRPPLGFLNPRLYQQHGAGLFDVTRGCHESCLDEEVEGQGFCSGPGWDPVTGWGTPNFPALLKTLLNP
# B3: PPT1-32 (wt-PPT1-vIGF2-32) (enzyme)
# chain: DPPAPLPLVIWHGMGDSCCNPLSMGAIKKMVEKKIPGIYVLSLEIGKTLMEDVENSFFLNVNSQVTTVCQALAKDPKLQQGYNAMGFSQGGQFLRAVAQRCPSPPMINLISVGGQHQGVFGLPRCPGESSHICDFIRKTLNAGAYSKVVQERLVQAEYWHDPIKEDVYRNHSIFLADINQERGINESYKKNLMALKKFVMVKFLNDSIVDPVDSEWFGFYRSGQAKETIPLQETSLYTQDRLGLKEMDNAGQLVFLATEGDHLQLSEEWFYAHIIPFLGRPRAVPTQGGSGSGSTSSSRTLCGGELVDTLQFVCGDRGFLFSRGGGGSRGILEECCFRECDLALLETYCATPARSE
# B4: PPT1-33 (wt-PPT1-vIGF2-8Q) (enzyme)
# chain: DPPAPLPLVIWHGMGDSCCNPLSMGAIKKMVEKKIPGIYVLSLEIGKTLMEDVENSFFLNVNSQVTTVCQALAKDPKLQQGYNAMGFSQGGQFLRAVAQRCPSPPMINLISVGGQHQGVFGLPRCPGESSHICDFIRKTLNAGAYSKVVQERLVQAEYWHDPIKEDVYRNHSIFLADINQERGINESYKKNLMALKKFVMVKFLNDSIVDPVDSEWFGFYRSGQAKETIPLQETSLYTQDRLGLKEMDNAGQLVFLATEGDHLQLSEEWFYAHIIPFLGRPRAVPTQGGSGSGSTSSSRTLCGGELVDTLQFVCGDRGFLFSRPASRVSRRSRGIVEECCFRECDLALLETYCATPARSE
# Legend:
# [1] = target: CI-MPR receptor; assay: CI-MPR-coated plate binding assay, conditioned media of HEK 293 cells; enzyme axis relative, no unit
# [2] = target: CI-MPR receptor; assay: CI-MPR-coated plate binding assay, conditioned media of HEK 293 cells
# [3] = target: CI-MPR receptor; assay: CI-MPR-coated plate binding assay, bound enzyme by Signature Peptide assay (FIG. 34)
# [4] = target: CI-MPR receptor; assay: CI-MPR-coated plate binding assay, conditioned media of HEK 293 cells, bound TPP1 activity
# [5] = target: CI-MPR receptor; assay: CI-MPR plate binding assay in presence of M6P, conditioned media, bound PPT1 activity; concentration axis relative (by activity), no unit
binder,measurement,setting,value
B1,binding,[1],binds
same,binding,[2],binds
same,binding,[3],binds
B2,binding,[4],binds
B3,binding,[5],binds
B4,binding,[5],binds
